Experimental data reported in the supplement of paper PMC12819154, “High-throughput peptide-centric local stability assay extends protein–ligand identification to membrane proteins, tissues and bacteria” (Nature Structural & Molecular Biology, 2025).
This is one part of the list. Small differences around the control level are noise.

Chains of the proteins cited; added tags and fusions are not shown. Lines headed by an entry give the natural chain unless they say otherwise; changes in a name come on top.
UniProt Q6PHS6: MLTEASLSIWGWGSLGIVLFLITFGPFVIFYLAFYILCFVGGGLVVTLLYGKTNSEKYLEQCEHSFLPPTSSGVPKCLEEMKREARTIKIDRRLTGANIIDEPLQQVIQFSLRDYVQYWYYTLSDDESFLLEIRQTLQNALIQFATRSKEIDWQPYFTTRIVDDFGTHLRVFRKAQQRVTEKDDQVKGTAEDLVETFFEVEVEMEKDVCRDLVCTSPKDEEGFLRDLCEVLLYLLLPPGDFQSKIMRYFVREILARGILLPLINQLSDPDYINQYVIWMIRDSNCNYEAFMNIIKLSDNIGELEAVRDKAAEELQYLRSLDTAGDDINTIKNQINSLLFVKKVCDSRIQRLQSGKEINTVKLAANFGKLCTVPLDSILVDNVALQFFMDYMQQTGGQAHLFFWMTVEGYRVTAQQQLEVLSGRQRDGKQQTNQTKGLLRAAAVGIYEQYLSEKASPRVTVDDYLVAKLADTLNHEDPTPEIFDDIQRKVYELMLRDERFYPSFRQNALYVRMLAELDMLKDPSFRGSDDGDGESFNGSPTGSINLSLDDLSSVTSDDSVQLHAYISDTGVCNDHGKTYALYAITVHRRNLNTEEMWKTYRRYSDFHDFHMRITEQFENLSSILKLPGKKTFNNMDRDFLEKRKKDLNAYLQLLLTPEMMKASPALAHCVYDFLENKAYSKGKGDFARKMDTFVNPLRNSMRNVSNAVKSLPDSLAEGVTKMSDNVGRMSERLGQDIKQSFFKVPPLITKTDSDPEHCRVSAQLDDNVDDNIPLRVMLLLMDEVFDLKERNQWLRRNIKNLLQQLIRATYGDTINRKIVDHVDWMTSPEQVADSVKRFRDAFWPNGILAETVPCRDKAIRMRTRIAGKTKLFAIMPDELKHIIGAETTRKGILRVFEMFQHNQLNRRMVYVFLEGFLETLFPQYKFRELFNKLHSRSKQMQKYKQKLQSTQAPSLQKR
UniProt Q6NXJ0: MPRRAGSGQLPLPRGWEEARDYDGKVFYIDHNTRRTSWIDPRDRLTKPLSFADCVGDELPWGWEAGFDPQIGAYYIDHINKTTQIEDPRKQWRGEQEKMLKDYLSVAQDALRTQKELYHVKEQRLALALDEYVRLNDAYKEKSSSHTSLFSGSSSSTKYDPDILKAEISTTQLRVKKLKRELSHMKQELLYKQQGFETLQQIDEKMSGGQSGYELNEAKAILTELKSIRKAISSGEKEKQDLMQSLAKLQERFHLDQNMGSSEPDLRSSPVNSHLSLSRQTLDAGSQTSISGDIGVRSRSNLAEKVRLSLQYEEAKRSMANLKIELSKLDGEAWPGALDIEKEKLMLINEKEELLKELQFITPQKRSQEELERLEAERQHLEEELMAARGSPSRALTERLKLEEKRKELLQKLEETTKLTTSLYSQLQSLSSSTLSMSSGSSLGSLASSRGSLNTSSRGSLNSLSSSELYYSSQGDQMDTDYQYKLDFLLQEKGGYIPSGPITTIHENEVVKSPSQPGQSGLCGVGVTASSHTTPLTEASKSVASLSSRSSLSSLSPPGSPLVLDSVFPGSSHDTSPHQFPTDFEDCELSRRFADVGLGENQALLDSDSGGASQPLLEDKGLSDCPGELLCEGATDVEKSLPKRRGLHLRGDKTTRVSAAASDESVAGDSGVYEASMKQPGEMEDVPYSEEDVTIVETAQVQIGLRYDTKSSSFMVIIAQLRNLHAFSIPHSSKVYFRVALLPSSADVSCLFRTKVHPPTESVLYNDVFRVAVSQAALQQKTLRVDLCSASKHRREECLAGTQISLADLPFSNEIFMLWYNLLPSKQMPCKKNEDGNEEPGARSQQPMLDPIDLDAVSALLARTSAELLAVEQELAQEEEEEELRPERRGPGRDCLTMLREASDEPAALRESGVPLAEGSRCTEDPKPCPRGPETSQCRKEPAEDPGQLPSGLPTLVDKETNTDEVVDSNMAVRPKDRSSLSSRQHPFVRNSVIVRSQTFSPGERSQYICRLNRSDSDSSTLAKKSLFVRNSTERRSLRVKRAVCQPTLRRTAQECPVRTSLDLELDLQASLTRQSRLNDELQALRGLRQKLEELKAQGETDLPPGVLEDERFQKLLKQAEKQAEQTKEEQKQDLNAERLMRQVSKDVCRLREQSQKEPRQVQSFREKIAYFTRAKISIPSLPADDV
UniProt Q6PDG8: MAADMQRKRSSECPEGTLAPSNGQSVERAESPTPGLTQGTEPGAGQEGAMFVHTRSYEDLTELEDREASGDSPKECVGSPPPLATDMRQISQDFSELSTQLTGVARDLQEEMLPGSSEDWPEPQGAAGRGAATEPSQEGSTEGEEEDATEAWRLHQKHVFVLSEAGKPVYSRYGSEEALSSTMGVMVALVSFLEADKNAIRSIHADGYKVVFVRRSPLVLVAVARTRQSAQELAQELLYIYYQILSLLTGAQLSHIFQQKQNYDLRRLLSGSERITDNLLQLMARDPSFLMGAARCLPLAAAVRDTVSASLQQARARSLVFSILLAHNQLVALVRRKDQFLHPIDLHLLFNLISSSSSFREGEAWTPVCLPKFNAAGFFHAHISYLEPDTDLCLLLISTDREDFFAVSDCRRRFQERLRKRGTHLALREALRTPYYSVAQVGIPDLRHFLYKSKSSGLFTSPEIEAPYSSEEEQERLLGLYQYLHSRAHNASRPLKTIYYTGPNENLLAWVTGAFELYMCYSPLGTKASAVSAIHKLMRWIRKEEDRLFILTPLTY
UniProt Q6NVE8: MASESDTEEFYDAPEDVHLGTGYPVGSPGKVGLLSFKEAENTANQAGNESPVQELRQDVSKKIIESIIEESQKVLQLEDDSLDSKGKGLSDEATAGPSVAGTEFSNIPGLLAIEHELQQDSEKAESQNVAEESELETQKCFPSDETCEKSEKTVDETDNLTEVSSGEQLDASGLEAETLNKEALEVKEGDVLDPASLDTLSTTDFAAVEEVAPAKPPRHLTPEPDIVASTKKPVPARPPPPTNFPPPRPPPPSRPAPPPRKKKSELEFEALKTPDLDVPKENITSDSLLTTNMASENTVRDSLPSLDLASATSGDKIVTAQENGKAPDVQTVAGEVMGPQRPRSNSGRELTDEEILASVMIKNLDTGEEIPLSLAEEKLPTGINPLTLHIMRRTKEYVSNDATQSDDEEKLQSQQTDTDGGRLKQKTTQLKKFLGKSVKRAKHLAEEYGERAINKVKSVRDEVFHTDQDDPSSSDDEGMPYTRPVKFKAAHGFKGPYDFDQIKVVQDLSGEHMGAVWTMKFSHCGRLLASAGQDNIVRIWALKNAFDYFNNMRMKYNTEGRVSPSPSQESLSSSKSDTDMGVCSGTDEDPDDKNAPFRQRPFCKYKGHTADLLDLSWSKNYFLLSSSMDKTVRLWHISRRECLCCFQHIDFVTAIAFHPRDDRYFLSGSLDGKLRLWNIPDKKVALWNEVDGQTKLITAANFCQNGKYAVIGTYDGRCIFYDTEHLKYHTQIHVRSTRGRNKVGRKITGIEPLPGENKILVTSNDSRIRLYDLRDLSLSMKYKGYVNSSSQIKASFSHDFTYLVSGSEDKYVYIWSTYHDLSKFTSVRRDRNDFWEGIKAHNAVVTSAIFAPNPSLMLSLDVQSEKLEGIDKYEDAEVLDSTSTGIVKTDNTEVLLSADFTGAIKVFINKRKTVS
UniProt Q6P6L0: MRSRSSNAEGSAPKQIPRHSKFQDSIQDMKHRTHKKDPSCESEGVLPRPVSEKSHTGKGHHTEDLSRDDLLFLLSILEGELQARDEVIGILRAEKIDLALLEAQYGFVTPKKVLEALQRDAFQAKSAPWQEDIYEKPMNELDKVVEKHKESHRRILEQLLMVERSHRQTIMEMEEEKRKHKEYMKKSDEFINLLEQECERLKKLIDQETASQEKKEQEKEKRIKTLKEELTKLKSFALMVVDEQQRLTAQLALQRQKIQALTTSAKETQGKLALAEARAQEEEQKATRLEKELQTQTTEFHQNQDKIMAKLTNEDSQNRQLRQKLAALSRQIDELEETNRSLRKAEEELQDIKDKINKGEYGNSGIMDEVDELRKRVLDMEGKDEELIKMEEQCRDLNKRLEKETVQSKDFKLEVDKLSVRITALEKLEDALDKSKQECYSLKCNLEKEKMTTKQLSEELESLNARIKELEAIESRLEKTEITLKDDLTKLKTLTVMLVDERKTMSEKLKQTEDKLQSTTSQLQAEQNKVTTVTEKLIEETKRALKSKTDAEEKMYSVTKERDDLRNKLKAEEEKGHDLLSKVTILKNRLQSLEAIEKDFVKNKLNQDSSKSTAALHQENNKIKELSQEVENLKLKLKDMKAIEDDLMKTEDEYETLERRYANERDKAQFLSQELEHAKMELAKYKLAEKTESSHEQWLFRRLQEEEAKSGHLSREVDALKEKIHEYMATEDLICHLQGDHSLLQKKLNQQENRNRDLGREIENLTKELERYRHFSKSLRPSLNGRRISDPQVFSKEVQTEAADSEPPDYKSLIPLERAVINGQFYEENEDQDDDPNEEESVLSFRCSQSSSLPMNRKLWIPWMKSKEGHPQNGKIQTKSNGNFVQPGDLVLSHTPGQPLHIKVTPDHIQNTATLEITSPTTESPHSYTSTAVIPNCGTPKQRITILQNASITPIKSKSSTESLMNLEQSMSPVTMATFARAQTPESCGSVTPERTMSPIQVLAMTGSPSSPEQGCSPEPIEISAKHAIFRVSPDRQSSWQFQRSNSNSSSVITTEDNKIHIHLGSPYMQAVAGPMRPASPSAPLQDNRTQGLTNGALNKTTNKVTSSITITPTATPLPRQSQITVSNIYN
UniProt Q6PIJ4, whole entry: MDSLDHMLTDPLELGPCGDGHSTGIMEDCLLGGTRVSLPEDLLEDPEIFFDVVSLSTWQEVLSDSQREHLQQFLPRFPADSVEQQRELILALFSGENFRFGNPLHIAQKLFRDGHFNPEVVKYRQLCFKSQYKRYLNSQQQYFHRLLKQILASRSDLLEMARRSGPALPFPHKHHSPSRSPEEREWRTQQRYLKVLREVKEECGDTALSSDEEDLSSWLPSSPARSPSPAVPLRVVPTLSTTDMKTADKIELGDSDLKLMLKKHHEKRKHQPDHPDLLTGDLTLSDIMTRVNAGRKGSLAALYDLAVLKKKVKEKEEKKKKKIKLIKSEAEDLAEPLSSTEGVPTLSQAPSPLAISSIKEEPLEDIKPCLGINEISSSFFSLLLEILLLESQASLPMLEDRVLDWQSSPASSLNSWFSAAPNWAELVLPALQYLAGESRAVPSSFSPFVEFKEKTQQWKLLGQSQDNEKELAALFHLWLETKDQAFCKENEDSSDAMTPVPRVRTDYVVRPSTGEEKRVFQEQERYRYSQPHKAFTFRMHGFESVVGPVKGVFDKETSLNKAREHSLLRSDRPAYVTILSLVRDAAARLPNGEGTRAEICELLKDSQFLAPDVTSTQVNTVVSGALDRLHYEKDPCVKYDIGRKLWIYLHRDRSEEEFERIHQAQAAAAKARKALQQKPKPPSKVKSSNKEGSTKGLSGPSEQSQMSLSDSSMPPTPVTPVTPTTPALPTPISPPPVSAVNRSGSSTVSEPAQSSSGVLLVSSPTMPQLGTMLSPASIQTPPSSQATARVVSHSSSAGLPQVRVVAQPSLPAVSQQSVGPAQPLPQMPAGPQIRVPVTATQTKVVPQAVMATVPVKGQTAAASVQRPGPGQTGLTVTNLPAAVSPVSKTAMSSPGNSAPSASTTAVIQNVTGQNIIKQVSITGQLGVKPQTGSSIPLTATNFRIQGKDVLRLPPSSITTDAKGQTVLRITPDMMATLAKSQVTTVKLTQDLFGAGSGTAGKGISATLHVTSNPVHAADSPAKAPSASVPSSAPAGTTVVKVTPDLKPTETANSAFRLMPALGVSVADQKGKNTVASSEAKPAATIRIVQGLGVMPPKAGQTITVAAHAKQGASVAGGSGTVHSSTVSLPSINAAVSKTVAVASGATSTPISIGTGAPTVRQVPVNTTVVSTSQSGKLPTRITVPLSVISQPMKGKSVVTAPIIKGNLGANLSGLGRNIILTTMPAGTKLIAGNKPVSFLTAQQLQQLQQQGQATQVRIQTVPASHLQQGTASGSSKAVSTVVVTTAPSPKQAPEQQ
UniProt Q6P068: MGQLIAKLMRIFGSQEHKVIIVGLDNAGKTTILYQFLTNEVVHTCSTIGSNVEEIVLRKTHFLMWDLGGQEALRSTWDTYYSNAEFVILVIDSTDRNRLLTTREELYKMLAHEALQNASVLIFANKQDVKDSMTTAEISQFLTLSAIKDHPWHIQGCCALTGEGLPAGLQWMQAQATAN
UniProt Q6SP97: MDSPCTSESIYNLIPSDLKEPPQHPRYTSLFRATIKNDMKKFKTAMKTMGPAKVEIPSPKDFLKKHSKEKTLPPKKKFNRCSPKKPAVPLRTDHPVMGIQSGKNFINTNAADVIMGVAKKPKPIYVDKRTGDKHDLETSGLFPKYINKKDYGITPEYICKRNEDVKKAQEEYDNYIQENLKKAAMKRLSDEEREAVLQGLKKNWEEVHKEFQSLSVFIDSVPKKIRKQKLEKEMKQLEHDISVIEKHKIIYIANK

compound: CN[C@@H]1C[C@H]2O[C@@](C)([C@@H]1OC)n1c3ccccc3c3c4c(c5c6ccccc6n2c5c31)C(=O)NC4 [staurosporine]; assay: log2 fold change of tryptic peptide abundance, ligand vs vehicle (limited proteolysis) (log2 ratio); higher = more trypsin-susceptible (destabilized); details: ligand concentration: 20 uM; sample: mouse liver crude lysate; replicate design: treated separately

Row | Target | log2 fold change
1 | UniProt Q6NZM9 (peptide sequence: DQPVELLNPAR, peptide start residue: 14) | -0.505
2 | UniProt Q6DFW4 (peptide sequence: KIVKEAHEPLAVADAK, peptide start residue: 78) | -0.436
3 | UniProt Q6PHS6 (peptide sequence: ATYGDTINRK, peptide start residue: 807) | 0.368
4 | UniProt Q6PER3 (peptide sequence: LTVDGLEKER, peptide start residue: 214) | 0.279
5 | UniProt Q6NXJ0 (peptide sequence: LDGEAWPGALDIEKEK, peptide start residue: 329) | -0.636
6 | UniProt Q6NZJ6 (peptide sequence: TLAFEELR, peptide start residue: 1437) | -0.538
7 | UniProt Q6NV83 (peptide sequence: MIEFVVR, peptide start residue: 434) | 0.16
8 | UniProt Q6A098 (peptide sequence: ETSATGPDSR, peptide start residue: 199) | -0.344
9 | UniProt Q6P5D4 (peptide sequence: LSHVTGDSSHQK, peptide start residue: 652) | -1.48
10 | UniProt Q6PDG8 (peptide sequence: LLGLYQYLHSR, peptide start residue: 477) | -0.537
11 | UniProt Q6GQV7 (peptide sequence: TEHAFQLIR, peptide start residue: 1114) | 0.542
12 | UniProt Q6NVE8 (peptide sequence: IIESIIEESQK, peptide start residue: 63) | -0.0993
13 | UniProt Q6P6L0 (peptide sequence: ELSQEVENLK, peptide start residue: 625) | -0.245
14 | UniProt Q6AXC6 (peptide sequence: GLAGFQQFLK, peptide start residue: 527) | -0.35
15 | UniProt Q6PD03 (peptide sequence: KELEREELWK, peptide start residue: 447) | 0.16
16 | UniProt Q6PB66 (peptide sequence: ITELLYK, peptide start residue: 559) | 0.795
17 | UniProt Q6NVG5 (peptide sequence: ILYNLIVIR, peptide start residue: 69) | 0.361
18 | UniProt Q6PCZ4 (peptide sequence: GHPAAVPGPDVPR, peptide start residue: 25) | 0.206

Row | Target | log2 fold change
19 | UniProt Q6PIJ4 (peptide sequence: TADKIELGDSDLK, peptide start residue: 246) | -0.6
20 | UniProt Q6P0X2 (peptide sequence: GPAMPAAADAATR, peptide start residue: 185) | 0.0813
21 | UniProt Q6PDZ2 (peptide sequence: RFLGHMER, peptide start residue: 631) | 0.386
22 | UniProt Q69ZR2 (peptide sequence: KLGPDSSVR, peptide start residue: 1468) | -0.247
23 | UniProt Q6PDK2 (peptide sequence: SEAGHLLLQK, peptide start residue: 4507) | 0.511
24 | UniProt Q6P068 (peptide sequence: VIIVGLDNAGK, peptide start residue: 19) | -0.203
25 | UniProt Q6PE54 (peptide sequence: IQDHSDTLKETG, peptide start residue: 768) | 0.26
26 | UniProt Q6QD59 (peptide sequence: QRIQELEQSAR, peptide start residue: 56) | -0.245
27 | UniProt Q6NXY1 (peptide sequence: ILAAGGK, peptide start residue: 228) | -0.217
28 | UniProt Q69ZR9 (peptide sequence: SIYDPLSVK, peptide start residue: 245) | -0.564
29 | UniProt Q6PEE2 (peptide sequence: QQRPPGGNKPQQHGDHQPGSAK, peptide start residue: 197) | 0.395
30 | UniProt Q6PB44 (peptide sequence: AALPTPALTPEDK, peptide start residue: 540) | 0.337
31 | UniProt Q6DVA0 (peptide sequence: RELQALGFQPGPITDTTR, peptide start residue: 11) | -0.278
32 | UniProt Q6SP97 (peptide sequence: EAVLQGLKK, peptide start residue: 194) | 0.127
33 | UniProt Q6NXK2 (peptide sequence: QVTIKPVATAFLPVSAVK, peptide start residue: 441) | -0.157
34 | UniProt Q6NXH8 (peptide sequence: IFCETSQK, peptide start residue: 86) | -0.245
35 | UniProt Q6DFW5 (peptide sequence: CSPNHISR, peptide start residue: 1142) | 0.0487
36 | UniProt Q6P7W5 (peptide sequence: IQVQEVILSR, peptide start residue: 438) | 0.438

Exported comma-delimited: part of the list above
Row,Target,log2 fold change
30,"UniProt Q6PB44 (peptide sequence: AALPTPALTPEDK, peptide start residue: 540)",0.337
31,"UniProt Q6DVA0 (peptide sequence: RELQALGFQPGPITDTTR, peptide start residue: 11)",-0.278
